According to patent publication US20170035908A1:
No constants are given. Whether binding was seen depends on the method and setting. Some binding calls cover weakened binding; strength is not graded here.

T1: linear phage-displayed peptide …
T1 sequence (peptide): WTWNITKEYPQP

T2: linear phage-displayed peptide …
T2 sequence (peptide): WTWNITKAYPLP


Assays:
[1] = biological target: T1, linear phage-displayed peptide …; assay: phage-displayed mutational library, panned and screened as before (hPAM4 and mPAM4)
[2] = biological target: T2, linear phage-displayed peptide …; assay: phage-displayed peptide screened on hPAM4 and mPAM4

| binding [1] | binding [2] | Binder |
| --- | --- | --- |
| binds |  | murine PAM4 antibody (antibody, V domains shown) VL: DIVMTQSPAIMSASPGEKVTMTCSASSSVSSSYLYWYQQKPGSSPKLWIYSTSNLASGVPARFSGSGSGTSYSLTISSMEAEDAASYFCHQWNRYPYTFGGGTKLEIK V domain: EVQLQESGPELVKPGASVKMSCKASGYTFPSYVLHWVKQKPGQGLEWIGYINPYNDGTQYNEKFKGKATLTSDKSSSTAYMELSRLTSEDSAVYYCARGFGGSYGFAYWGQGTLITVSA |
| binds | binds | humanized PAM4 antibody (antibody, V domains shown) VH: QVQLQQSGAEVKKPGASVKVSCEASGYTFPSYVLHWVKQAPGQGLEWIGYINPYNDGTQYNEKFKGKATLTRDTSINTAYMELSRLRSDDTAVYYCARGFGGSYGFAYWGQGTLVTVSS VL: DIQLTQSPSSLSASVGDRVTMTCSASSSVSSSYLYWYQQKPGKAPKLWIYSTSNLASGVPARFSGSGSGTDFTLTISSLQPEDSASYFCHQWNRYPYTFGGGTRLEIKR |
